PubChem BioAssay AID652243, Drosophila RNAi Screening Center, 2013
Screen: 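Fly regulators of androgen-dependent reporter output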 (primary screen). Cell system: Drosophila S2R+ cells. Reagents: long dsRNA against Drosophila genes. Time to read-out: 72 h (48 h, then 24 h hormone). Challenge: synthetic androgen R1881 at 10 nM for 24 h. Read-out: 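Firefly light from an androgen-responsive reporter and Renilla control light per well, raw and unnormalised, for each of two replicates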. Direction: firefly reporter light: higher = more light from androgen-responsive reporter; Renilla control light: higher = more constitutive control signal (cell number, transfection). Hit rule: 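Across duplicate plates, a knock-down whose log firefly/Renilla ratio shifted a set fold down or up from the GFP/LacZ control mean was a hit; the downward cut appears as both 1.5 and 3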. Meaning of the calls: active = hit: reporter lowered or raised; inactive = no hit.
The screen tested about 24,000 reagents; below is an unselected part of those that have a named target and a result. Over the whole deposit, 246 (1%) are marked active. 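Plates not normalised; calls are printed but the firefly/Renilla ratio behind them is not deposited; fold cut for lowering reported inconsistently.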 Raw values are not corrected between plates. A plus sign joins genes that one reagent is predicted to hit. Not stated in the record: the amount of reagent.

predicted target | dsRNA | firefly reporter light, replicate 1 | firefly reporter light, replicate 2 | Renilla control light, replicate 1 | Renilla control light, replicate 2 | activity call
Vha68-1 | DRSC03470 | 3.33e5 | 2.78e5 | 2.23e6 | 2.32e6 | inactive
CG4409 | DRSC06869 | 54331 | 99037 | 1.12e6 | 1.12e6 | inactive
CG4409 | DRSC28040 | 3.57e5 | 3.00e5 | 1.35e6 | 1.26e6 | inactive
CG17258 | DRSC00495 | 1.10e5 | 1.59e5 | 1.21e6 | 1.18e6 | inactive
CG17258 | DRSC22709 | 6.20e5 | 7.41e5 | 1.12e6 | 1.49e6 | inactive
CG17258 | DRSC28524 | 2.86e5 | 4.92e5 | 1.19e6 | 1.74e6 | inactive
cpb | DRSC00809 | 7.26e5 | 8.04e5 | 2.49e6 | 2.47e6 | inactive
cpb | DRSC29870 | 9.58e5 | 9.80e5 | 8.96e5 | 1.10e6 | inactive
CG34265 | DRSC38852 | 8.09e5 | 7.65e5 | 1.47e6 | 1.70e6 | inactive
CG8299 | DRSC07139 | 39544 | 46935 | 8.66e5 | 8.66e5 | inactive
CG8299 | DRSC25580 | 1.59e6 | 1.39e6 | 1.45e6 | 1.48e6 | inactive
Mst57Da | DRSC16744 | 1.17e5 | 1.84e5 | 2.29e6 | 2.07e6 | inactive
Gpat4 | DRSC04345 | 9.00e5 | 5.16e5 | 1.01e6 | 1.06e6 | inactive
CG30099 | DRSC07039 | 72768 | 1.19e5 | 1.82e6 | 1.82e6 | inactive
CG30099 | DRSC26526 | 2.65e5 | 2.55e5 | 5.40e5 | 5.60e5 | inactive
CG3842 | DRSC18326 | 1.86e5 | 1.80e5 | 1.98e6 | 2.24e6 | inactive
CG3842 | DRSC26584 | 3.19e5 | 3.31e5 | 7.07e5 | 6.23e5 | inactive
Sas10 | DRSC18355 | 2.18e5 | 1.91e5 | 2.02e6 | 2.92e6 | inactive
Mulk | DRSC02658 | 1.24e6 | 6.52e5 | 1.52e6 | 1.40e6 | inactive
Mulk | DRSC39277 | – | – | – | – | inactive
Mulk | DRSC39290 | – | – | – | – | inactive
Adsl | DRSC15500 | 57570 | 1.10e5 | 4.99e5 | 7.86e5 | inactive
ari-1 | DRSC20308 | 1.88e5 | 5.53e5 | 5.26e6 | 4.90e6 | inactive
ari-1 | DRSC21603 | 7.58e5 | 7.26e5 | 2.02e6 | 2.12e6 | inactive
ari-1 | DRSC27556 | 3.07e5 | 1.54e5 | 5.63e5 | 8.17e5 | inactive
CG7884 | DRSC20065 | 1.29e5 | 1.25e5 | 5.91e5 | 4.03e5 | inactive
CG7884 | DRSC25412 | 5.02e5 | 6.98e5 | 5.08e5 | 7.85e5 | inactive
aft | DRSC07576 | 9.28e5 | 9.79e5 | 2.16e6 | 1.87e6 | inactive
CG15097 | DRSC06526 | 1.20e6 | 1.05e6 | 1.73e6 | 1.21e6 | inactive
CG15097 | DRSC27170 | 3.08e5 | 2.37e5 | 5.69e5 | 5.94e5 | inactive
otk2 | DRSC07303 | 2.83e5 | 2.72e5 | 1.66e6 | 1.57e6 | inactive
CG8046 | DRSC07059 | 9.74e5 | 1.02e6 | 2.55e6 | 2.92e6 | inactive
spz | DRSC17065 | 91962 | 82525 | 8.14e5 | 1.02e6 | inactive
spz | DRSC28820 | 3.41e5 | 4.04e5 | 9.58e5 | 1.02e6 | inactive
spz | DRSC39151 | 1.42e6 | 1.11e6 | 2.32e6 | 1.90e6 | inactive
RpL37A | DRSC02899 | 62547 | 62214 | 6.61e5 | 4.69e5 | inactive
RpL37A | DRSC25051 | 3.60e5 | 2.28e5 | 9.16e5 | 3.60e5 | inactive
Gr64b + Gr64c | DRSC08444 | 1.77e5 | 1.97e5 | 1.33e6 | 1.70e6 | inactive
Gr64b + Gr64c | DRSC08445 | 1.70e5 | 1.50e5 | 2.36e6 | 2.47e6 | inactive
Gr64b + Gr64c | DRSC27568 | 2.94e5 | 2.93e5 | 9.01e5 | 7.40e5 | inactive
CG12723 | DRSC19499 | 4.80e5 | 6.98e5 | 1.46e6 | 1.86e6 | inactive
CG12723 | DRSC26290 | 3.25e5 | 4.81e5 | 8.60e5 | 5.12e5 | inactive
CG33299 | DRSC01085 | 1.74e5 | 1.74e5 | 5.74e5 | 6.23e5 | inactive
CG31406 | DRSC12777 | 3.63e5 | 83877 | 1.73e5 | 1.27e5 | inactive
CG31406 | DRSC26169 | 3.13e5 | 3.24e5 | 4.76e5 | 4.53e5 | inactive
r + CG13012 | DRSC19531 | 6.13e5 | 5.16e5 | 2.36e6 | 2.13e6 | inactive
Ero1L | DRSC08660 | 1.12e6 | 4.94e5 | 1.53e6 | 1.03e6 | inactive

Next part, starting with the last 10 of the part before.
predicted target | dsRNA | firefly reporter light, replicate 1 | firefly reporter light, replicate 2 | Renilla control light, replicate 1 | Renilla control light, replicate 2 | activity call
Gr64b + Gr64c | DRSC08444 | 1.77e5 | 1.97e5 | 1.33e6 | 1.70e6 | inactive
Gr64b + Gr64c | DRSC08445 | 1.70e5 | 1.50e5 | 2.36e6 | 2.47e6 | inactive
Gr64b + Gr64c | DRSC27568 | 2.94e5 | 2.93e5 | 9.01e5 | 7.40e5 | inactive
CG12723 | DRSC19499 | 4.80e5 | 6.98e5 | 1.46e6 | 1.86e6 | inactive
CG12723 | DRSC26290 | 3.25e5 | 4.81e5 | 8.60e5 | 5.12e5 | inactive
CG33299 | DRSC01085 | 1.74e5 | 1.74e5 | 5.74e5 | 6.23e5 | inactive
CG31406 | DRSC12777 | 3.63e5 | 83877 | 1.73e5 | 1.27e5 | inactive
CG31406 | DRSC26169 | 3.13e5 | 3.24e5 | 4.76e5 | 4.53e5 | inactive
r + CG13012 | DRSC19531 | 6.13e5 | 5.16e5 | 2.36e6 | 2.13e6 | inactive
Ero1L | DRSC08660 | 1.12e6 | 4.94e5 | 1.53e6 | 1.03e6 | inactive
CG10053 | DRSC12502 | 75738 | 80173 | 5.91e5 | 6.30e5 | inactive
CG10053 | DRSC29993 | 6.10e5 | 3.68e5 | 1.02e6 | 1.03e6 | inactive
CG13380 + CG4174 | DRSC09988 | 76871 | 57259 | 8.53e5 | 6.22e5 | inactive
CG13380 + CG4174 | DRSC10406 | 2.44e5 | 1.40e5 | 2.04e6 | 2.19e6 | inactive
Menl-2 + Menl-1 | DRSC07469 | 1.03e5 | 1.07e5 | 2.59e6 | 2.59e6 | inactive
Menl-2 + Menl-1 | DRSC07470 | 46312 | 41057 | 7.78e5 | 7.78e5 | inactive
Menl-2 + Menl-1 | DRSC29015 | 8.50e5 | 8.75e5 | 1.49e6 | 1.36e6 | inactive
Cdlc2 | DRSC00743 | 6.97e5 | 5.55e5 | 1.62e6 | 1.49e6 | inactive
Cdlc2 | DRSC24865 | 7.75e5 | 9.21e5 | 8.61e5 | 8.68e5 | inactive
Trpgamma | DRSC03626 | 1.26e5 | 1.37e5 | 2.05e6 | 2.14e6 | inactive
UQCR-11 | DRSC38687 | 6.76e5 | 7.29e5 | 2.00e6 | 2.25e6 | inactive
CG5506 | DRSC10511 | 2.28e5 | 2.21e5 | 1.62e6 | 1.58e6 | inactive
CG30378 | DRSC05071 | 1.12e5 | 1.61e5 | 3.81e5 | 6.12e5 | inactive
CG12341 | DRSC06133 | 3.97e5 | 3.54e5 | 2.78e6 | 1.67e6 | inactive
Sbf | DRSC16852 | 40167 | 75115 | 2.24e5 | 5.06e5 | active
Sbf | DRSC27418 | 2.69e5 | 2.18e5 | 6.42e5 | 7.56e5 | inactive
Sbf | DRSC37037 | – | – | – | – | inactive
HDAC11 | DRSC14280 | 1.14e5 | 1.72e5 | 2.15e6 | 2.44e6 | inactive
HDAC11 | DRSC26842 | 3.36e5 | 2.66e5 | 7.40e5 | 5.02e5 | inactive
CG7368 | DRSC10826 | 1.25e5 | 1.17e5 | 1.85e6 | 1.26e6 | inactive
CG7368 | DRSC22821 | 1.38e5 | 1.53e5 | 8.11e5 | 1.02e6 | inactive
CG7368 | DRSC29098 | 4.79e5 | 5.43e5 | 1.23e6 | 1.19e6 | inactive
Teh2 | DRSC08458 | 1.66e5 | 95718 | 1.51e6 | 1.54e6 | inactive
Teh2 | DRSC29037 | 5.24e5 | 5.59e5 | 1.67e6 | 1.08e6 | inactive
CG17784 | DRSC15268 | 1.56e5 | 2.21e5 | 3.04e6 | 2.02e6 | inactive
ninaD | DRSC02886 | 1.76e5 | 1.81e5 | 1.42e6 | 1.92e6 | inactive
ninaD | DRSC24484 | 5.53e5 | 3.77e5 | 4.19e5 | 4.23e5 | inactive
